Laboratory results from article PMC8837555, “CRISPR and biochemical screens identify MAZ as a cofactor in CTCF-mediated insulation at Hox clusters”.
No constants are given. Whether binding was seen depends on the method and setting. Binding seen in cells or lysates may run through a third protein. Some results given as binding are weak or reduced against the parent protein; the word gives no strength. Sequences can lack the tags named with a protein.

Key:
[1] = target: T1, FLAG-MAZ (Myc-associated zinc-finger protein, mouse cDNA) (mouse) (UniProt P56671); assay: co-IP; FLAG affinity purification from nuclear extract (BA450 buffer: 20 mM HEPES, 450 mM NaCl, 5% glycerol, 0.2 mM EDTA) of transfected 293FT cells, FLAG peptide elution, western blot; 4 °C or on ice
T1 sequence: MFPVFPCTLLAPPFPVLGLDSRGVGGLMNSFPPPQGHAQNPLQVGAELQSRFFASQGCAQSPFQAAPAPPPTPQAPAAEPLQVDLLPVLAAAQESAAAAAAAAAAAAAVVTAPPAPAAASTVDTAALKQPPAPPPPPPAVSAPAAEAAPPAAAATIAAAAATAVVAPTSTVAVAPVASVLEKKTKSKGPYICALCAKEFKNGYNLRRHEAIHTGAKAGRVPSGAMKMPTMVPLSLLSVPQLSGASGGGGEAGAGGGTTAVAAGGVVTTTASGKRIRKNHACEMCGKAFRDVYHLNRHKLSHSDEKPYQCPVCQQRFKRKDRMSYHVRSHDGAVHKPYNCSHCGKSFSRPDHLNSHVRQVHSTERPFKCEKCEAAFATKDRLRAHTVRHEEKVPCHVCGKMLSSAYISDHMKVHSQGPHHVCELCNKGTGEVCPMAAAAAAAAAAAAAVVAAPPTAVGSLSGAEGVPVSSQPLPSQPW

[2] = target: T2, FLAG-CTCF (CCCTC-binding factor, mouse cDNA, expressed in 293FT) (mouse) (UniProt Q61164); assay: as above
T2 sequence: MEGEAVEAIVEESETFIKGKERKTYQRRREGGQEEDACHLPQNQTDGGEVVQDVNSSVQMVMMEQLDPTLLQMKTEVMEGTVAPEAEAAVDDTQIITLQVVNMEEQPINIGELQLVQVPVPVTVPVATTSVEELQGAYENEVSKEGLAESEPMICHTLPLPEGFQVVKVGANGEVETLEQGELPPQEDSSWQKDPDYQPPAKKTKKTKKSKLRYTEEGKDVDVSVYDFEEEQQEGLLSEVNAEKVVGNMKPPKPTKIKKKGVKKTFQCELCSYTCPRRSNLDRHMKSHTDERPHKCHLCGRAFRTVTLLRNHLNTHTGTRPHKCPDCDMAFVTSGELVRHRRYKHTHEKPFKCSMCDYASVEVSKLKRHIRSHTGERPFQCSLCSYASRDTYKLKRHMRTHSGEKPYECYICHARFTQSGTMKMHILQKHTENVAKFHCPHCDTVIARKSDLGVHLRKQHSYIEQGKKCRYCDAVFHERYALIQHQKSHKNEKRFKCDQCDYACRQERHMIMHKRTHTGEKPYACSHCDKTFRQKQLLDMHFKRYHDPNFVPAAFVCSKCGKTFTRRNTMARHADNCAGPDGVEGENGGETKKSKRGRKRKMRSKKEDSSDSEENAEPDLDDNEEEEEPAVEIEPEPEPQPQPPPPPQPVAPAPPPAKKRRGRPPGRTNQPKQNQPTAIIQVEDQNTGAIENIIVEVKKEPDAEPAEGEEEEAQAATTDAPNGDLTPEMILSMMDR

binding [1]: binds
binding [2]: binds
B1: RAD21 (cohesin subunit) (protein, UniProt O60216 1-631)
chain: MFYAHFVLSKRGPLAKIWLAAHWDKKLTKAHVFECNLESSVESIISPKVKMALRTSGHLLLGVVRIYHRKAKYLLADCNEAFIKIKMAFRPGVVDLPEENREAAYNAITLPEEFHDFDQPLPDLDDIDVAQQFSLNQSRVEEITMREEVGNISILQENDFGDFGMDDREIMREGSAFEDDDMLVSTTTSNLLLESEQSTSNLNEKINHLEYEDQYKDDNFGEGNDGGILDDKLISNNDGGIFDDPPALSEAGVMLPEQPAHDDMDEDDNVSMGGPDSPDSVDPVEPMPTMTDQTTLVPNEEEAFALEPIDITVKETKAKRKRKLIVDSVKELDSKTIRAQLSDYSDIVTTLDLAPPTKKLMMWKETGGVEKLFSLPAQPLWNNRLLKLFTRCLTPLVPEDLRKRRKGGEADNLDEFLKEFENPEVPREDQQQQHQQRDVIDEPIIEEPSRLQESVMEASRTNIDESAMPPPPPQGVKRKAGQIDPEPVMPPQQVEQMEIPPVELPPEEPPNICQLIPELELLPEKEKEKEKEKEDDEEEEDEDASGGDQDQEERRWNKRTQQMLHGLQRALAKTGAESISLLELCRNTNRKQAAAKFYSFLVLKKQQAIELTQEEPYSDIIATPGPRFHII
